Article PMC4729931
Results are given in words; binding and its absence hold for the method and conditions named. Binding seen in cells or lysates may run through a third protein. Some entries that bind do so weakly or less than the wild type.

Tests used:
[1] = biological target: T1, VANGL2 (human (endogenous in SUM149, SKBR7, PDX)) (UniProt Q9ULK5); assay: co-IP; co-immunoprecipitation from SUM149 cells expressing GFP-p62^DN (Supplementary Fig. 5)
T1 sequence: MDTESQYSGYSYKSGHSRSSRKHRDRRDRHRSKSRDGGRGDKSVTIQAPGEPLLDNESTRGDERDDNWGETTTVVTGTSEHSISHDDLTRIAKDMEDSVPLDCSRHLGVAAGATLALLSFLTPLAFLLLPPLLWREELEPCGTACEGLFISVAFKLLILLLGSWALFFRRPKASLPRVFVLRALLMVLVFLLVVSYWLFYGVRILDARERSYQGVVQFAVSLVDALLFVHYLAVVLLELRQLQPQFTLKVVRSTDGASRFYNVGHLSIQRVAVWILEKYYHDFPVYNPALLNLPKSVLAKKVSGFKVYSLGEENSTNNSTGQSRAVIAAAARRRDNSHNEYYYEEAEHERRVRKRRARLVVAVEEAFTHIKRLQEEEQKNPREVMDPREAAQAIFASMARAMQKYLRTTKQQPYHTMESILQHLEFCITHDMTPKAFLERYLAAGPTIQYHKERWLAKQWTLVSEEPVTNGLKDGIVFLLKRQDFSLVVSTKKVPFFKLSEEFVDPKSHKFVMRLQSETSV

[2] = biological target: T1, VANGL2 (human (endogenous in SUM149, SKBR7, PDX)); assay: co-IP; immunoprecipitation of endogenous VANGL2 (2G4 mAb, protein G-agarose) and western blot; SUM149, SKBR7, IMCD3 cells and PDX extracts; cells also treated with serum, Wnt5a, PBS or EGTA

p62/sequestosome-1 (from UniProt Q13501 1-440)
binding [1]: binds | binding [2]: binds
